Test results reported in PMC9779997.

Amino acid sequences for entries named in this document (tags omitted).
UniProt P51685: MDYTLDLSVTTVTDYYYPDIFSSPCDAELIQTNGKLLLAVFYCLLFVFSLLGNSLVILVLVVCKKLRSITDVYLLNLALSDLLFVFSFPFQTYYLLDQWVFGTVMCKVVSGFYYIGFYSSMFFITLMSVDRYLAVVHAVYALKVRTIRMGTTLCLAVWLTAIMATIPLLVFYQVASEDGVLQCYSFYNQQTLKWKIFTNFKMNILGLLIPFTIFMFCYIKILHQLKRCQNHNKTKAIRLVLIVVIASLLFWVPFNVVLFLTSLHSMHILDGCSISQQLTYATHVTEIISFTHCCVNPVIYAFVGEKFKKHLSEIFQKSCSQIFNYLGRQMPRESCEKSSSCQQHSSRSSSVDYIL
UniProt Q8IX90: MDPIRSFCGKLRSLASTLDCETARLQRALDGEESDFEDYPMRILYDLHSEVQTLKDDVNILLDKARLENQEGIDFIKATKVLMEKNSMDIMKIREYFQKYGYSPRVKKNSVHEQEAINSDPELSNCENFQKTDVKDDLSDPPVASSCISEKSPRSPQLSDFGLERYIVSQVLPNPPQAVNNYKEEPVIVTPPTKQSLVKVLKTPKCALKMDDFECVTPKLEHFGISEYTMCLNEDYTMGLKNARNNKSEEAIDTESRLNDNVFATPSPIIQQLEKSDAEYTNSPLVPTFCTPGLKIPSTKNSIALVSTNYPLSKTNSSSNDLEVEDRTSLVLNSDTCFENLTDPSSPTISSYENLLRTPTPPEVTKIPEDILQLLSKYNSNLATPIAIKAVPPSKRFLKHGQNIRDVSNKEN

B1: NPIPA3 (protein, UniProt F8WFD2 1-350)
chain: MFCCLGYEWLSGGCKTWHSAWVINTLADHRHRGTDFGGSPWLLIITVFLRSYKFAISLCTSYLCVSFLKTIFPSQNGHDGSTDVQQRARRSNRRRQEGIKIVLEDIFTLWRQVETKVRAKICKMKVTTKVNRHDKINGKRKTAKEHLRKLSMKEREHGEKERQVSEAEENGKLDMKEIHTYMEMFQRAQALRRRAEDYYRCKITPSARKPLCNRVRMAAAEHRHSSGLPYWPYLTAETLKNRMGHQPPPPTQQHSIIDNSLSLKTPPECLLTPLPPSALPSADDNLKTPAECLLYPLPPSADDNLKTPPECLLTPLPPSAPPSVDDNLKTPPKCVCSLPFHPQRMIISRN
B2: RTEL1 (protein, UniProt Q9NZ71 1-1219)
chain: MPKIVLNGVTVDFPFQPYKCQQEYMTKVLECLQQKVNGILESPTGTGKTLCLLCTTLAWREHLRDGISARKIAERAQGELFPDRALSSWGNAAAAAGDPIACYTDIPKIIYASRTHSQLTQVINELRNTSYRPKVCVLGSREQLCIHPEVKKQESNHLQIHLCRKKVASRSCHFYNNVEEKSLEQELASPILDIEDLVKSGSKHRVCPYYLSRNLKQQADIIFMPYNYLLDAKSRRAHNIDLKGTVVIFDEAHNVEKMCEESASFDLTPHDLASGLDVIDQVLEEQTKAAQQGEPHPEFSADSPSPGLNMELEDIAKLKMILLRLEGAIDAVELPGDDSGVTKPGSYIFELFAEAQITFQTKGCILDSLDQIIQHLAGRAGVFTNTAGLQKLADIIQIVFSVDPSEGSPGSPAGLGALQSYKVHIHPDAGHRRTAQRSDAWSTTAARKRGKVLSYWCFSPGHSMHELVRQGVRSLILTSGTLAPVSSFALEMQIPFPVCLENPHIIDKHQIWVGVVPRGPDGAQLSSAFDRRFSEECLSSLGKALGNIARVVPYGLLIFFPSYPVMEKSLEFWRARDLARKMEALKPLFVEPRSKGSFSETISAYYARVAAPGSTGATFLAVCRGKASEGLDFSDTNGRGVIVTGLPYPPRMDPRVVLKMQFLDEMKGQGGAGGQFLSGQEWYRQQASRAVNQAIGRVIRHRQDYGAVFLCDHRFAFADARAQLPSWVRPHVRVYDNFGHVIRDVAQFFRVAERTMPAPAPRATAPSVRGEDAVSEAKSPGPFFSTRKAKSLDLHVPSLKQRSSGSPAAGDPESSLCVEYEQEPVPARQRPRGLLAALEHSEQRAGSPGEEQAHSCSTLSLLSEKRPAEEPRGGRKKIRLVSHPEEPVAGAQTDRAKLFMVAVKQELSQANFATFTQALQDYKGSDDFAALAACLGPLFAEDPKKHNLLQGFYQFVRPHHKQQFEEVCIQLTGRGCGYRPEHSIPRRQRAQPVLDPTGRTAPDPKLTVSTAAAQQLDPQEHLNQGRPHLSPRPPPTGDPGSQPQWGSGVPRAGKQGQHAVSAYLADARRALGSAGCSQLLAALTAYKQDDDLDKVLAVLAALTTAKPEDFPLLHRFSMFVRPHHKQRFSQTCTDLTGRPYPGMEPPGPQEERLAVPPVLTHRAPQPGPSRSEKTGKTQSKISSFLRQRPAGTVGAGGEDAGPSQSSGPPHGPAASEWGL

Target: T1, Ubiquitin-specific protease 2 (human (endogenous in H1299 and A549)) (UniProt O75604)
T1 sequence: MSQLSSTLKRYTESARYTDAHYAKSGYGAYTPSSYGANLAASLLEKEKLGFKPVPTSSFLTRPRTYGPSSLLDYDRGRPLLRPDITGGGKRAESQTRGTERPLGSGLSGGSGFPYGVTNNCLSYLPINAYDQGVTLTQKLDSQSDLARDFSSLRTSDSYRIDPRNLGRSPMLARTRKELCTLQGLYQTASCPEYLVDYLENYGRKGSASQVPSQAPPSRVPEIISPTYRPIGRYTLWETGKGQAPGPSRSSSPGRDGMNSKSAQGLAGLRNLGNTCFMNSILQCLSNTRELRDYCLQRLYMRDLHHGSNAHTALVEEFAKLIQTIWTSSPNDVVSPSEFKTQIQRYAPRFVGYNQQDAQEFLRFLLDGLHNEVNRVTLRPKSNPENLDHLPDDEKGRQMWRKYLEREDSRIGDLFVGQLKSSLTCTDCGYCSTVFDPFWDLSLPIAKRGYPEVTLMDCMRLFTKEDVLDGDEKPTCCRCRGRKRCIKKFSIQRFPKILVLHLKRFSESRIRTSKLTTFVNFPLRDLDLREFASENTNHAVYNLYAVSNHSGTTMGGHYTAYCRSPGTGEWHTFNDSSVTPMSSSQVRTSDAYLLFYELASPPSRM
Assay: affinity purification with mass spectrometry; H1299 cell proteins immunoprecipitated with anti-USP2 antibody or control IgG, SDS-PAGE, LC-MS/MS (LTQ Orbitrap Elite)

| Molecule | binding |
| --- | --- |
| CCR8 (from UniProt P51685 1-355) (receptor) | binds |
| SKA3 (from UniProt Q8IX90 1-412) | binds |
| B1 | binds |
| B2 | binds |

No constants are given. Whether binding was seen depends on the method and setting. Binding seen in cells or lysates may run through a third protein. A yes stands for co-enrichment or nearness to the bait. Other partners may have been found.
